# Source: PubChem BioAssay AID1347076 (National Center for Advancing Translational Sciences (NCATS), 2019)
# Hit rate of the full screen: of about 400,000 compounds, about 13,000 (3.2%) were called active. Inconclusive results, whose numbers are uncertain, are shown with a selection of clear calls. Calls come from the whole dose curve; as a rule, active = well fitted cell-killing curve with a large enough effect; inconclusive = small, poorly fitted or top-dose-only effect, or effect the other way; inactive = flat fitted curve, though single readings scatter. A potency beside an inconclusive call is a rough fit, not a confirmed value.
# Assay: qHTS assay for MDR1-selective chemotherapeutics: Primary screen using the drug-selected MDR subline cells KB-V1; note: nearly all actives have a fitted effect of over 60% in size
# Conditions: KB-V1 MDR cells viability, CellTiter-Glo, 72 h; activity change, negative = cytotoxicity: at 46.1 µM (top of the series)
# Summary of the method: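 Luminescent ATP read-out (CellTiter-Glo, 10 min) measures survival of drug-selected KB-V1 MDR cells after 72 h, 37 degrees C compound exposure. Medium: phenol-red-free DMEM, 10% FBS. Values from fitted concentration-response curves.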
# % is set by controls: 0 for no effect and ±100 for the full control effect; potency is the fitted concentration of half-maximal effect.
SMILES,Potency,"activity change, negative = cytotoxicity"
COc1ccc(NC(=O)COc2ccccc2Cc2ccccc2)cn1,"inconclusive: 18.4 µM [cytotoxic, single point]",–
O=C(Nc1ccc(Cl)cc1)C1Cc2c(-c3cccc(F)c3)ccnc2O1 (stereo unspecified),–,inactive: 0%
Cc1ccc(CN(C(=O)c2c(F)cccc2F)C2CC(C)(C)NC(C)(C)C2)o1,"inconclusive: 7.31 µM [cytotoxic, partial curve]",–
CC(C)N(C(=O)COC(=O)c1cccc(S(=O)(=O)N2CC3(C)CC2CC(C)(C)C3)c1)C(C)C (stereo unspecified),"inconclusive: 14.6 µM [cytotoxic, partial curve]",–
COc1ccc(-c2nc(C)c(C(C)=O)n2O)cc1[N+](=O)[O-],"inconclusive: 16.4 µM [cytotoxic, partial curve]",–
CC1CN(C(=O)N2CCC(C(=O)NCc3cccs3)CC2)c2cc(Cl)ccc2O1 (stereo unspecified),"inconclusive: 11.6 µM [cytotoxic, partial curve, poor fit]",–
CN(C)c1ccc(O)c2c1CC1CC3[C@@H](N(C)C)C(=O)C(C(N)=O)=C(O)[C@]3(O)C(=O)C1=C2O (stereo partly specified),–,inactive: -23.8%
CCn1c(SCc2ccc(C)cc2)nnc1C1CCN(S(=O)(=O)c2ccc(OC)cc2)CC1,"inconclusive: 20.6 µM [cytotoxic, single point]",–
C/C=C1\NC(=O)[C@H](C)NC(=O)[C@@H](NC(=O)[C@H](Cc2ccc(O)cc2)NC(=O)[C@@H](NC(=O)/C(C)=C/C)C(C)C)[C@@H](C)OC(=O)[C@H](CCCc2ccc(O)cc2)NC(=O)[C@@H](CCC(=O)OC)NC1=O,–,inactive: 0%
Nc1n[nH]c(CO)n1,–,inactive: -1.68%
COc1ccc(-c2c(C)c3ccc(O)c(CN4CCOCC4)c3oc2=O)cc1,–,inactive: -13.2%
CC(C)(C(=O)N1CCC1(C)C(=O)NC1Cc2ccccc2C1)c1ccccc1 (stereo unspecified),–,inactive: 4.48%
N/N=C(\c1ccccc1)c1cc(Br)ccc1N,"inconclusive: 20.6 µM [rising, single point]",–
Cc1ccc(OCC(=O)NNC(=O)CSc2ncnc3sc(C)c(C)c23)cc1,"inconclusive: 23.1 µM [rising, single point]",–
Cc1ccc(NC(=S)/N=C(\N)Nc2nc(C)c3cc(C)ccc3n2)c(C)c1,"inconclusive: 13 µM [cytotoxic, partial curve]",–
Cc1ccc(/C=C2\Oc3c(ccc(O)c3CN3CCN(C)CC3)C2=O)cc1,"inconclusive: 0.82 µM [rising, full curve, poor fit]",–
CCC12CN(C(=O)c3ccc(C)cc3)CC(CC)(CN(C(=O)c3ccc(C)cc3)C1)C2=O,active: 5.17 µM,–
COc1ccc(C2=Nc3ccccc3NC(=O)C2N(CCc2cc(OC)cc(OC)c2)C(C)=O)cc1 (stereo unspecified),–,inactive: 0%
CN(C)/C=N/c1c(C#N)cnn1-c1ccc(C(F)(F)F)cn1,–,inactive: -1.43%
COc1ccc(-c2cc(C)no2)cc1S(=O)(=O)Nc1c(C)cc(C)cc1C,–,inactive: -10.6%
CCOC(=O)C1=C(COC(=O)C2CC(=O)N(c3ccc(CC)cc3)C2)NC(=O)NC1C (stereo unspecified),"inconclusive: 29.1 µM [rising, single point]",–
O=C(O)CC1(CC(=O)Nc2ccccc2C(=O)c2ccccc2)CCCC1,"inconclusive: 29.1 µM [rising, single point]",–

SMILES,Potency,"activity change, negative = cytotoxicity"
COC(=O)[C@@]12C[C@@H](CC(=O)N3CCN(C(=O)c4ccco4)CC3)C(=O)N(Cc3cccc4ccccc34)C1=CCC(C)(C)C2,active: 23.1 µM,–
COC(=O)CNC(=O)COC(=O)c1cc(F)c(F)cc1Cl,"inconclusive: 10.3 µM [rising, partial curve, poor fit]",–
COc1cc(OC)cc(C(=O)NCCCN2CCN(CCCNC(=O)c3cc(OC)cc(OC)c3)CC2)c1,"inconclusive: 0.366 µM [rising, partial curve, poor fit]",–
NS(=O)(=O)c1cccc(NC(=O)COc2ccc([N+](=O)[O-])cc2)c1,"inconclusive: 18.4 µM [rising, partial curve]",–
CCCCNC(=O)C1CCN(S(=O)(=O)CCC)CC1,–,inconclusive: -49.1%
CCc1cc(Br)ccc1NC(=S)NCCc1ccccc1,"inconclusive: 29.1 µM [cytotoxic, single point]",–
Cc1ccc(-n2nc3c(c2NC(=O)c2c(-c4ccccc4Cl)noc2C)CS(=O)(=O)C3)c(C)c1,active: 11.6 µM,–
CCC1S/C(=N/N=C/c2ccco2)N(Cc2ccccc2)C1=O (stereo unspecified),"inconclusive: 29.1 µM [cytotoxic, single point]",–
CCc1cccc(CC)c1NC(=O)C(NS(=O)(=O)c1cccs1)c1ccccc1 (stereo unspecified),"inconclusive: 14.6 µM [cytotoxic, partial curve, poor fit]",–
CCOC(=O)c1c(-c2ccccc2)csc1NC(=O)c1cc(=O)c2ccc(C)cc2o1,–,inactive: 0.0438%
Cc1cc(NC(=O)C2CC(=O)N(c3ccc(F)cc3)C2)no1 (stereo unspecified),"inconclusive: 4.11 µM [rising, full curve, poor fit]",–
Cc1cc(C)cc(NC(=S)/N=C(\N)Nc2nc(C)c3ccccc3n2)c1,active: 18.4 µM,–
CC(=O)N1CCc2cc(NC(=O)C3(C)CCN3CCc3ccccc3)ccc21 (stereo unspecified),"inconclusive: 5.8 µM [cytotoxic, partial curve]",–
O=C1NC(=O)C2(COC(c3cccnc3)OC2)S1 (stereo unspecified),"inconclusive: 29.1 µM [rising, single point]",–
CCc1nc2ccc(C(=O)N3CCN(C(C)=O)CC3)cn2c1N(C=O)Cc1ccc(OC)cc1,–,inactive: -3.63%
CCN(Cc1ccncc1)C(=O)CCc1nnc(CCC2CCCCC2)o1,"inconclusive: 2.06 µM [cytotoxic, partial curve]",–
Cc1sc2nc(C(C)C)nc(SCC(=O)N3CCN(C(=O)c4ccco4)CC3)c2c1C,–,inactive: -9.44%
CC1=CC(=O)N(c2cccc(C(F)(F)F)c2)C1c1ccc(Cl)cc1 (stereo unspecified),active: 14.6 µM,–
CC(=O)OCC(=O)[C@H]1CC[C@H]2[C@@H]3CC=C4C[C@@H](O)CC[C@]4(C)[C@H]3CC[C@]12C,"inconclusive: 14.6 µM [cytotoxic, partial curve]",–
CCOC(=O)C1CCN(C(c2ccc(SC)cc2)c2c(O)cc(C)n(Cc3ccco3)c2=O)CC1 (stereo unspecified),–,inactive: 1.77%
Nc1cc(-c2cccc(Br)c2)nn1Cc1ccccc1,"inconclusive: 18.4 µM [cytotoxic, single point]",–
Cc1ccc(-c2csc3nnc(SCc4csc(C)n4)n23)cc1,"inconclusive: 32.6 µM [cytotoxic, single point]",–

SMILES,Potency,"activity change, negative = cytotoxicity"
COCCNC(=O)Nc1cc(C(=O)NCc2ccc(C(C)C)cc2)ccc1N1CCCC1,–,inactive: -12.4%
COc1cc(C2NC(=O)c3c(sc4c3CCN(C)C4)N2)cc(Br)c1OC(=O)c1ccc(C)cc1 (stereo unspecified),"inconclusive: 20.6 µM [rising, partial curve]",–
Cn1c(SCC(=O)Nc2ccccc2F)nnc1-c1cccs1,"inconclusive: 13 µM [cytotoxic, partial curve]",–
COC(=O)c1c(NC(=O)COc2ccc(Cl)cc2)sc2c1CC(C)(C)NC2(C)C,"inconclusive: 29.1 µM [cytotoxic, single point]",–
O=C(O)c1ccccc1Sc1ncnc2sccc12,"inconclusive: 8.2 µM [rising, partial curve, poor fit]",–
Cc1cccc(N2CCN(S(=O)(=O)c3ccc(-c4coc(C)n4)cc3)CC2C)c1 (stereo unspecified),–,inactive: -13.1%
CC1CC(C)(C)CC2(C1)NC(=O)N(CC(=O)NCCc1ccc3c(c1)OCCO3)C2=O (stereo unspecified),"inconclusive: 18.4 µM [cytotoxic, single point]",–
Cc1ccc(-c2noc(CN(C(=O)c3ccc4c(c3)OCO4)C(C)C)n2)cc1,"inconclusive: 13 µM [cytotoxic, partial curve]",–
CC1(C(=O)NS(=O)(=O)c2cccc(F)c2)CCN1C(=O)CC1CCCCC1 (stereo unspecified),–,inactive: 7.11%
O=C(NCCc1ccco1)C(=O)NCC1CCCN1S(=O)(=O)c1ccccc1 (stereo unspecified),"inconclusive: 29.1 µM [cytotoxic, single point]",–
Cc1cccc(NC(=O)Cc2ccc(Br)cc2)n1,–,inconclusive: 0%
COc1ccccc1CNC(=O)C1CCCN(C(=O)c2cnn(-c3ccc(F)cc3)c2-n2cccc2)C1 (stereo unspecified),"inconclusive: 11.6 µM [cytotoxic, partial curve]",–
COc1ccc(C=NNC(=O)NN=Cc2ccc(OC)c(OC)c2)cc1OC,"inconclusive: 32.6 µM [cytotoxic, single point]",–
COc1ccc2[nH]c(=O)c(CN(Cc3cccs3)S(=O)(=O)c3c(C)ccc4nsnc34)cc2c1,"inconclusive: 3.26 µM [cytotoxic, partial curve, poor fit]",–
COc1ccc(OC)c(NCc2cccn2-c2nnc(N3CCCCC3)s2)c1,"inconclusive: 25.9 µM [cytotoxic, single point]",–
CCN(CC)S(=O)(=O)c1cc(NS(=O)(=O)c2cc(Cl)ccc2Cl)ccc1C,"inconclusive: 7.31 µM [cytotoxic, partial curve]",–
COc1ccc(CNC(=O)C2CCN(S(=O)(=O)c3ccc4c(c3)CC(C)N4C(C)=O)CC2)cc1 (stereo unspecified),–,inactive: 0%
Cn1c(=O)c2c(nc(Br)n2CC(=O)C23CC4CC(CC(C4)C2)C3)n(C)c1=O,"inconclusive: 25.9 µM [cytotoxic, single point]",–
CCOC(=O)c1cc(-c2c(Cl)cccc2Cl)no1,–,inactive: 8.69%
OCCN1CCN(CCCN2c3ccccc3Sc3ccc(C(F)(F)F)cc32)CC1,"inconclusive: 9.2 µM [cytotoxic, partial curve]",–
CCN1CCN(c2ncc(C(=O)Nc3ccccc3C(=O)OC)c3ccccc23)CC1,"inconclusive: 29.1 µM [cytotoxic, single point]",–
Cc1cc(NCc2ccccn2)n2ncc(-c3ccccc3)c2n1,"inconclusive: 2.91 µM [cytotoxic, partial curve, poor fit]",–

# Retrieved by structure from above (2):
SMILES,Potency,"activity change, negative = cytotoxicity"
O=C(NCCc1ccco1)C(=O)NCC1CCCN1S(=O)(=O)c1ccccc1 (stereo unspecified),"inconclusive: 29.1 µM [cytotoxic, single point]",–
Cc1cccc(NC(=O)Cc2ccc(Br)cc2)n1,–,inconclusive: 0%
